Assay results taken from patent US20160237419A1.
Results are given in words; binding and its absence hold for the method and conditions named. Some binding calls cover weakened binding; strength is not graded here.

Protein sequences, listed by entry. Tags and fused reporters are not part of them. Lines headed by an entry give the natural chain unless they say otherwise; changes in a name come on top. Residues count along the entry.
UniProt P23827, residues 21-162: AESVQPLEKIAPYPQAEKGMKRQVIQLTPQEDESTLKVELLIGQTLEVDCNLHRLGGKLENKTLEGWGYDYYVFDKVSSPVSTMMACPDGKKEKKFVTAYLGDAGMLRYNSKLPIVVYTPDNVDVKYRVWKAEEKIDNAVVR
UniProt P07477: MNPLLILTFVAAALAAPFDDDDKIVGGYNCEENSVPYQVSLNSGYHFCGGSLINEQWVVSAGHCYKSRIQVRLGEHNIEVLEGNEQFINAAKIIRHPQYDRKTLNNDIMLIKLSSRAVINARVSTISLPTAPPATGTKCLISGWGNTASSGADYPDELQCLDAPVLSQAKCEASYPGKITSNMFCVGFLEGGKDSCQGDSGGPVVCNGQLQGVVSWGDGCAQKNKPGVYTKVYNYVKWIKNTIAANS

Molecular target: ecotin (UniProt P23827)
Experiment: affinity chromatography on immobilised ecotin

Substance: supercharged variant of human trypsinogen-1 (PRSS1 sc) (from UniProt P07477 18-247) (enzyme)
- binding: binds
